In patent publication US9517222B2, “Method for the treatment of senile dementia of the Alzheimer's type” (Phenomenome Discoveries Inc., priority 2007, dated 2016):

How the values were obtained:
[1] = Serum ethanolamine phospholipid levels in human cohorts (dementia severity, post-mortem pathology, age) by flow-injection MS/MS
[2] = Serum ethanolamine phospholipid ratios to PtdEt 16:0/18:0 (M01) in human cohorts
[3] = serum, females, post mortem SDAT
[4] = serum, females, post mortem control

Structure (SMILES): CCCCC/C=C\C/C=C\CCCCCCCC(=O)OC(COCCCCCCCCCCCCCCCCCC)COP(=O)(O)OCCN (centres unmarked) [Metabolite M11, Plasmanyl 18:0/18:2]
- Ratio of serum levels ([1]; AD, All to CN, Male): 0.866
- Ratio of serum levels ([1]; ADAS 5-19 to CN, Male): 0.861
- Ratio of serum levels ([1]; ADAS 20-39 to 5-19, Male): 1.000
- Ratio of serum levels ([1]; ADAS 20-39 to CN, Male): 0.861
- Ratio of serum levels ([1]; ADAS 40-70 to 5-19, Male): 0.927
- Ratio of serum levels ([1]; ADAS 40-70 to 20-39, Male): 0.927
- Ratio of serum levels ([1]; ADAS 40-70 to CN, Male): 0.798
- Serum level, Mean ([1]; Cognitive Normal, Female): 0.105
- Average serum level, Mean ([1]; Cognitive Normal, Male): 0.110
- Serum level, Mean ([1]; Post Mortem Ctl, Male): 0.052
- Serum level, Mean ([1]; Post Mortem SDAT Male): 0.041
- Ratio of serum levels ([1]; Post mortem SDAT vs Control, Male): 0.474
- Serum level, Mean ([1]; SDAT, ADAS 5-19, Female): 0.094
- Average serum level, Mean ([1]; SDAT, ADAS 5-19, Male): 0.095
- Serum level, Mean ([1]; SDAT, ADAS 20-39, Female): 0.090
- Average serum level, Mean ([1]; SDAT, ADAS 20-39, Male): 0.095
- Serum level, Mean ([1]; SDAT, ADAS 40-70, Female): 0.080
- Average serum level, Mean ([1]; SDAT, ADAS 40-70, Male): 0.088
- Serum level, Mean ([1]; SDAT_all, Female): 0.088
- Average serum level, Mean ([1]; SDAT_all, Male): 0.095
- Ratio, ADAS 5-19 to CN, Female ([1]; serum level ratio, females, ADAS 5-19 vs CN): 0.894
- Ratio, ADAS 20-39 to 5-19, Female ([1]; serum level ratio, females, ADAS 20-39 vs ADAS 5-19): 0.951
- Ratio, ADAS 20-39 to CN, Female ([1]; serum level ratio, females, ADAS 20-39 vs CN): 0.850
- Ratio, ADAS 40-70 to 5-19, Female ([1]; serum level ratio, females, ADAS 40-70 vs ADAS 5-19): 0.853
- Ratio, ADAS 40-70 to 20-39, Female ([1]; serum level ratio, females, ADAS 40-70 vs ADAS 20-39): 0.896
- Ratio, ADAS 40-70 to CN, Female ([1]; serum level ratio, females, ADAS 40-70 vs CN): 0.762
- Ratio, 50-59 vs. 40-49, Female ([1]; serum level ratio, females, age 50-59 vs 40-49): 0.843
- Ratio, 60-69 vs. 40-49, Female ([1]; serum level ratio, females, age 60-69 vs 40-49): 0.832
- Ratio, 70+ vs. 40-49, Female ([1]; serum level ratio, females, age 70+ vs 40-49): 0.843
- Ratio, AD, All to CN, Female ([1]; serum level ratio, females, all AD vs cognitively normal): 0.832
- Ratio, Autopsy AD vs. Control, Female ([1]; serum level ratio, females, autopsy AD vs control): 0.650
- Ratio, 50-59 vs. 40-49, Male ([1]; serum level ratio, males, age 50-59 vs 40-49): 0.992
- Ratio, 60-69 vs. 40-49, Male ([1]; serum level ratio, males, age 60-69 vs 40-49): 1.004
- Ratio, 70+ vs. 40-49, Male ([1]; serum level ratio, males, age 70+ vs 40-49): 1.058
- Mean serum level, Age Ctl, 30-39, Female ([1]; serum, females, age 30-39): 0.120
- Mean serum level, Age Ctl, 40-49, Female ([1]; serum, females, age 40-49): 0.119
- Mean serum level, Age Ctl, 50-59, Female ([1]; serum, females, age 50-59): 0.100
- Mean serum level, Age Ctl, 60-69, Female ([1]; serum, females, age 60-69): 0.099
- Mean serum level, Age Ctl, 70+, Female ([1]; serum, females, age 70+): 0.100
- Mean serum level, Post Mortem SDAT, Female [1, 3]: 0.025
- Mean serum level, Post Mortem Ctl, Female [1, 4]: 0.064
- Mean serum level, Age Ctl, 30-39, Male ([1]; serum, males, age 30-39): 0.131
- Mean serum level, Age Ctl, 40-49, Male ([1]; serum, males, age 40-49): 0.099
- Mean serum level, Age Ctl, 50-59, Male ([1]; serum, males, age 50-59): 0.098
- Mean serum level, Age Ctl, 60-69, Male ([1]; serum, males, age 60-69): 0.099
- Mean serum level, Age Ctl, 70+, Male ([1]; serum, males, age 70+): 0.104
- Ratio of ethanolamine phospholipid ratios to M01 between cohorts ([2]; AD, All to CN, Male): 0.830
- Ratio of ethanolamine phospholipid ratios to M01 between cohorts ([2]; ADAS 5-19 to CN, Male): 0.841
- Ratio of ethanolamine phospholipid ratios to M01 between cohorts ([2]; ADAS 20-39 to CN, Male): 0.837
- Ratio of ethanolamine phospholipid ratios to M01 between cohorts ([2]; ADAS 40-70 to CN, Male): 0.773
- Average serum ethanolamine phospholipid ratio to M01, Mean ([2]; Cognitive Normal, Male, serum): 0.985
- Average serum ethanolamine phospholipid ratio to M01, Mean ([2]; SDAT, ADAS 5-19, Male, serum): 0.828
- Average serum ethanolamine phospholipid ratio to M01, Mean ([2]; SDAT, ADAS 20-39, Male, serum): 0.824
- Average serum ethanolamine phospholipid ratio to M01, Mean ([2]; SDAT, ADAS 40-70, Male, serum): 0.761
- Average serum ethanolamine phospholipid ratio to M01, Mean ([2]; SDAT_all, Male, serum): 0.817
- Ethanolamine Phospholipid Ratio to M01, Mean, Age Ctl, 30-39, Female ([2]; human serum, females aged 30-39): 1.220
- Ethanolamine Phospholipid Ratio to M01, Mean, Age Ctl, 40-49, Female ([2]; human serum, females aged 40-49): 1.092
- Ethanolamine Phospholipid Ratio to M01, Mean, Age Ctl, 50-59, Female ([2]; human serum, females aged 50-59): 1.021
- Ratio of Ethanolamine Phospholipid Ratio to M01, 50-59 vs. 40-49, Female ([2]; human serum, females aged 50-59 vs. females aged 40-49): 0.935
- Ethanolamine Phospholipid Ratio to M01, Mean, Age Ctl, 60-69, Female ([2]; human serum, females aged 60-69): 0.823
- Ratio of Ethanolamine Phospholipid Ratio to M01, 60-69 vs. 40-49, Female ([2]; human serum, females aged 60-69 vs. females aged 40-49): 0.754
- Ethanolamine Phospholipid Ratio to M01, Mean, Age Ctl, 70+_Female ([2]; human serum, females aged 70+): 0.840
- Ratio of Ethanolamine Phospholipid Ratio to M01, 70+ vs. 40-49, Female ([2]; human serum, females aged 70+ vs. females aged 40-49): 0.770
- Ratio of Ethanolamine Phospholipid Ratio to M01, 50-59 vs. 40-49, Male ([2]; human serum, males aged 50-59 vs. males aged 40-49): 1.010
- Ratio of Ethanolamine Phospholipid Ratio to M01, 60-69 vs. 40-49, Male ([2]; human serum, males aged 60-69 vs. males aged 40-49): 0.878
- Ratio of Ethanolamine Phospholipid Ratio to M01, 70+ vs. 40-49, Male ([2]; human serum, males aged 70+ vs. males aged 40-49): 0.903
- Ratio of ethanolamine phospholipid ratio to M01, ADAS 5-19 to CN, Female ([2]; serum, females, ADAS 5-19 vs cognitive normal): 0.953
- Ratio of ethanolamine phospholipid ratio to M01, ADAS 20-39 to 5-19, Female ([2]; serum, females, ADAS 20-39 vs ADAS 5-19): 0.947
- Ratio of ethanolamine phospholipid ratio to M01, ADAS 20-39 to CN, Female ([2]; serum, females, ADAS 20-39 vs cognitive normal): 0.902
- Ratio of ethanolamine phospholipid ratio to M01, ADAS 40-70 to 5-19, Female ([2]; serum, females, ADAS 40-70 vs ADAS 5-19): 0.799
- Ratio of ethanolamine phospholipid ratio to M01, ADAS 40-70 to 20-39, Female ([2]; serum, females, ADAS 40-70 vs ADAS 20-39): 0.844
- Ratio of ethanolamine phospholipid ratio to M01, ADAS 40-70 to CN, Female ([2]; serum, females, ADAS 40-70 vs cognitive normal): 0.762
- Ethanolamine phospholipid ratio to M01, Mean, SDAT, ADAS 5-19, Female ([2]; serum, females, SDAT ADAS 5-19): 0.886
- Ethanolamine phospholipid ratio to M01, Mean, SDAT, ADAS 20-39, Female ([2]; serum, females, SDAT ADAS 20-39): 0.839
- Ethanolamine phospholipid ratio to M01, Mean, SDAT, ADAS 40-70, Female ([2]; serum, females, SDAT ADAS 40-70): 0.708
- Ratio of ethanolamine phospholipid ratio to M01, AD, All to CN, Female ([2]; serum, females, all AD vs cognitive normal): 0.868
- Ethanolamine phospholipid ratio to M01, Mean, SDAT_all Female ([2]; serum, females, all SDAT): 0.807
- Ratio of ethanolamine phospholipid ratio to M01, Autopsy AD vs. Control, Female ([2]; serum, females, autopsy AD vs post mortem control): 0.950
- Ethanolamine phospholipid ratio to M01, Mean, Cognitive Normal, Female ([2]; serum, females, cognitive normal): 0.929
- Ethanolamine phospholipid ratio to M01, Mean, Post Mortem SDAT Female [2, 3]: 0.364
- Ethanolamine phospholipid ratio to M01, Mean, Post Mortem Ctl, Female [2, 4]: 0.384
- Ratio of ethanolamine phospholipid ratio to M01, ADAS 20-39 to 5-19, Male ([2]; serum, males, SDAT ADAS 20-39 vs ADAS 5-19): 0.995
- Ratio of ethanolamine phospholipid ratio to M01, ADAS 40-70 to 5-19, Male ([2]; serum, males, SDAT ADAS 40-70 vs ADAS 5-19): 0.919
- Ratio of ethanolamine phospholipid ratio to M01, ADAS 40-70 to 20-39, Male ([2]; serum, males, SDAT ADAS 40-70 vs ADAS 20-39): 0.924
- Ethanolamine phospholipid ratio to M01, Mean, Age Ctl, 30-39, Male ([2]; serum, males, age control 30-39): 1.063
- Ethanolamine phospholipid ratio to M01, Mean, Age Ctl, 40-49, Male ([2]; serum, males, age control 40-49): 0.899
- Ethanolamine phospholipid ratio to M01, Mean, Age Ctl, 50-59, Male ([2]; serum, males, age control 50-59): 0.908
- Ethanolamine phospholipid ratio to M01, Mean, Age Ctl, 60-69, Male ([2]; serum, males, age control 60-69): 0.789
- Ethanolamine phospholipid ratio to M01, Mean, Age Ctl, 70+_Male ([2]; serum, males, age control 70+): 0.811
- Ethanolamine phospholipid ratio to M01, Mean, Post Mortem SDAT Male ([2]; serum, males, post mortem SDAT): 0.272
- Ratio of ethanolamine phospholipid ratio to M01, SDAT vs Control (post mortem, males) ([2]; serum, males, post mortem SDAT vs post mortem control): 0.602
- Ethanolamine phospholipid ratio to M01, Mean, Post Mortem Ctl, Male ([2]; serum, males, post mortem control): 0.452

Some values come without a unit; they compare only within their column.
